At least one structure is not confirmed: it was looked up by name or label, or the drawing left a doubt.
Biological target: T1, mitoNEET (Homo sapiens, UniProt Q9NZ45)
T1 sequence (Q9NZ45 33-108 limits assumed): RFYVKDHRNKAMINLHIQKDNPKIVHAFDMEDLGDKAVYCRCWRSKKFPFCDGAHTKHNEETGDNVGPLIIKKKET
Assay: Competitive spectrophotometric assay of mitoNEET⋅PLP complex formation
Type: biochemical
Conditions: signal at λ=380 nm (unbound PLP) with increasing compound concentration

CCc1ccc(CCOc2ccc(CC3SC(=O)NC3=O)cc2)nc1 (stereo not shown) [pioglitazone]
Effect on mitoNEET⋅PLP complex formation: not to preclude the formation of mitoNEET⋅PLP complex
